Literature values in patent publication US20200121721A1, “METHODS FOR GENETIC MODIFICATION OF HEMATOPOIETIC CELLS” (THE BRIGHAM AND WOMEN'S HOSPITAL, INC., priority 2014, published 2020).
At least one compound was matched to its structure with a doubt left.

System: cord blood CD34+CD90+ cells
Details: cited from earlier work

In the case of `CC1(C)NC(=O)[C@H](CCCCCC(=O)[C@H]2CO2)NC(=O)[C@H]2CCCN2C(=O)[C@H](Cc2ccccc2)NC1=O` [Chlamydocin], the “expansion of CD34+CD90+ cells (reported)” value is listed as “reported to expand CD34+CD90+ cells”.
